This is an account of results in PMC10580381 (ACS Pharmacology & Translational Science, 2023).

One assay relates to A549 cells. As to the kind of experiment: SRB cell proliferation assay, A549. The conditions noted are these: gefitinib–SAHA combination, equipotent concentrations, A549 (resistant), 72 h; CI < 1 synergistic.
The test system of another assay is H1975 cells. The note with it: gefitinib–SAHA combination, equipotent concentrations, H1975 (resistant), 72 h; CI < 1 synergistic.
In a further assay the test system is HCC827 cells. As to the kind of experiment: SRB cell proliferation assay, HCC827. The conditions noted are these: gefitinib–SAHA combination, equipotent concentrations, HCC827 (sensitive), 72 h; CI < 1 synergistic.
The subject of the next assay is H820 cells. The note with it: gefitinib–SAHA combination, equipotent concentrations, H820 (resistant), 72 h; CI < 1 synergistic.
Assay [1] relates to total HDAC activity from the H1975 nuclear extract. The note with it: 10 μM (highest concentration tested).
A further assay has as its system H1650 cells. The conditions noted are these: gefitinib–SAHA combination, equipotent concentrations, H1650 (resistant), 72 h; CI < 1 synergistic.

For `O=C(CCCCCCC(=O)Nc1ccccc1)NO` [SAHA, Vorinostat], the “combination index (CI)” value in the assay with A549 cells is reported as 0.58 ± 0.11; in the assay on H1975 cells, 0.36 ± 0.07; in the assay with HCC827 cells, 0.88 ± 0.10; in the assay with H820 cells, 0.72 ± 0.06; with H1650 cells, 0.64 ± 0.09. Also, in assay [1], the “inhibition of total HDAC activity” value is roughly 90%.
